The campaign covered roughly 400,000 compounds. About 5,500 (1.4%) were called active. Inconclusive results, whose numbers are uncertain, are shown with a selection of clear calls. The call rests on the fitted dose curve; in most records, active means well fitted cell-killing curve with a large enough effect; inconclusive means small, poorly fitted or top-dose-only effect, or effect the other way; inactive means flat fitted curve, though single readings scatter. Where the call is inconclusive, the potency comes from a doubtful curve fit.
Assay: qHTS assay for MDR1-selective chemotherapeutics: Primary screen using the parental adenocarcinoma cell KB-3-1; further: nearly all actives have a fitted effect of over 60% in size
Details: KB-3-1 viability, CellTiter-Glo ATP luminescence, 72 h; activity change, negative = cytotoxic: at 46.1 µM (top of the series)
Procedure, shortened: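 KB-3-1 cells, DMEM (no phenol red) + 10% FBS; compound by pin transfer, 72 h, 37 °C. Readout: CellTiter-Glo luminescence after 10 min. Data normalized, curve-fitted.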
On the % scale 0 is the no-effect control and ±100 the full control effect; potency means the concentration at half of the fitted maximal effect.

Structure (SMILES)	activity change, negative = cytotoxic	Potency
CCOc1ccc(N2CC(C(=O)N3CCc4ccccc4C3)CC2=O)cc1 (centres undefined)	inactive: 5.8%	–
Nc1nc(OCc2ccccc2)c2[nH]cnc2n1	–	inconclusive: 29.1 µM [cytotoxic, single point]
Cc1cccc(N2CCN(C(c3ccccc3)c3nnnn3C(C)(C)C)CC2)c1C (centres undefined)	–	inconclusive: 29.1 µM [cytotoxic, single point]
CCOC(=O)c1cnc2ccc(C)cc2c1N(C)Cc1ccccc1	–	inconclusive: 23.1 µM [cytotoxic, partial curve, poor fit]
Cc1ccc(CN2CCSc3ccc(C(=O)N4CCN(c5ncccn5)CC4)cc32)cc1	–	active: 20.6 µM
Cc1ccc(N(CC(=O)NC(C)(C)C)C(=O)CNC(=O)c2cccs2)cc1	–	inconclusive: 2.59 µM [rising, full curve, poor fit]
C/C(=N\NC(=O)c1ccc(CN(C)S(=O)(=O)c2ccc(C)cc2)cc1)c1ccc(OC(F)F)cc1	–	active: 10.3 µM
CC(=O)OC(C)(C)/C=C/C(=O)[C@](C)(O)C1[C@H](O)C[C@@]2(C)C3CC=C4C(C=C(O[C@@H]5O[C@H](CO)[C@@H](O)[C@H](O)[C@H]5O)C(=O)C4(C)C)[C@]3(C)C(=O)C[C@]12C (some centres undefined)	–	inconclusive: 2.31 µM [cytotoxic, full curve]
Cc1ccc(-c2nnc(SCC(=O)N/N=C/c3ccc(C)s3)n2-c2ccc(C)cc2)cc1	inconclusive: -2.99%	–
Cc1cc(C)c2sc(N(CCCN(C)C)C(=O)c3ccc(S(=O)(=O)N(C)C4CCCCC4)cc3)nc2c1	–	inconclusive: 10.3 µM [cytotoxic, partial curve]
Cc1ccc(S(=O)(=O)Cc2cc(F)c([N+](=O)[O-])cc2[N+](=O)[O-])cc1	–	inconclusive: 29.1 µM [cytotoxic, single point]
Cc1cc(Oc2ccc(Br)cc2)nc(SCC(=O)c2ccccc2)n1	inactive: -19.5%	–
C[C@H](CO)N1C[C@H](C)[C@@H](CN(C)Cc2ccc3c(c2)OCO3)Oc2cc(Br)ccc2S1(=O)=O	inactive: 23.8%	–
CCCC(=O)Nc1ccc2c(c1)nc(CN1CCN(C(=O)OCC)CC1)n2CC	–	active: 3.26 µM
COC(=O)c1c(SCC(=O)Nc2cc(C)cc(C)c2)[nH]c2ccccc2c1=O	–	inconclusive: 20.6 µM [cytotoxic, single point]
Cc1c(N=C2NN=C(c3ccc(Cl)cc3)CS2)c(=O)n(-c2ccccc2)n1C	–	inconclusive: 18.4 µM [cytotoxic, single point]
O=C(Cc1ccccc1)NCC(=O)Nc1cc(Cl)ccc1Cl	–	inconclusive: 29.1 µM [cytotoxic, single point]
C[n+]1ccccc1/C=C1\Sc2ccccc2N1CCO	–	active: 20.6 µM
O=C(NCc1cccc(Cl)c1)c1cc(COc2ccc3ncccc3c2)on1	–	active: 11.6 µM
COc1ccc(NS(=O)(=O)c2cc([N+](=O)[O-])ccc2N/N=C\c2c(C)[nH]c3ccccc23)cc1	–	inconclusive: 29.1 µM [cytotoxic, single point]
CCCNc1ncnc2onc(C)c12	–	inactive
O=C(CCCCCCCCCCC(=O)NCc1cccnc1)NCc1cccnc1	–	inconclusive: 2.91 µM [rising, partial curve, poor fit]
Cc1nn(C)c(Cl)c1NC(=O)OCc1ccc(F)cc1	inactive: -20.7%	–

Structure (SMILES)	activity change, negative = cytotoxic	Potency
COC(=O)c1cn(C(=O)c2ccc(C)c(C)c2)c2ccccc12	–	inconclusive: 10.3 µM [cytotoxic, partial curve, poor fit]
Cc1cc(S(=O)(=O)Nc2ccc(-c3ccc(N4CCCCC4)nn3)cc2)c(C)cc1Cl	inactive: 1.34%	–
COC(=O)c1cc(C(=O)Nc2cc(C)on2)cc([N+](=O)[O-])c1	–	inconclusive: 0.231 µM [rising, full curve]
CCOc1ccc(NC(=O)CSc2nnc(-c3ccccc3Cl)n2Cc2ccco2)cc1	–	inconclusive: 29.1 µM [cytotoxic, single point]
CCN(CC)C1=NS(=O)(=O)c2cc([N+](=O)[O-])ccc21	–	inconclusive: 20.6 µM [cytotoxic, single point]
O=C(/C=C/c1ccc(Cl)cc1)Nc1ccc(CN2CCOCC2)cc1	–	inconclusive: 20.6 µM [cytotoxic, partial curve, poor fit]
Cc1nc2c(sc3nc4c(cc32)COC(C)(C)C4)c(=O)n1CC(=O)NCc1ccco1	–	active: 5.17 µM
COC(=O)N/N=C/c1ccc(-c2ccccc2Cl)o1	–	inconclusive: 29.1 µM [cytotoxic, single point]
O=C1C(Nc2ccc(O)cc2)=C/C(=N/S(=O)(=O)c2cccs2)c2ccccc21	–	active: 3.26 µM
O=C(CN1C(=O)C2C3C=CC(C3)C2C1=O)Nc1nc(-c2ccccn2)cs1 (centres undefined)	–	inconclusive: 23.1 µM [cytotoxic, single point]
Cc1ccc(O)c(Cc2cc(C)cc(Cc3cc(C)ccc3O)c2O)c1	–	inconclusive: 16.4 µM [cytotoxic, single point]
CCn1c(N2CCN(S(=O)(=O)c3ccc(F)cc3)CC2)nc2ccccc21	–	inconclusive: 29.1 µM [cytotoxic, single point]
C/C(CC(=O)Nc1ccc(N(C)C)cc1)=N\NC(=O)c1ccc(C(C)(C)C)cc1	–	inconclusive: 32.6 µM [cytotoxic, partial curve, poor fit]
OC(COc1ccccc1)CN1CCC(Cc2ccccc2)CC1 (centres undefined)	inactive: -6.72%	–
COc1ccc(NC(=O)C[C@H]2C(=O)N(CCc3ccccc3)C[C@@H]2Cc2ccccc2)cc1	–	inconclusive: 29.1 µM [cytotoxic, single point]
Cc1ccc(C)c(OCCC(=O)NCCc2ccc(Cl)cc2)c1	–	inconclusive: 9.2 µM [rising, partial curve, poor fit]
CC(C)Oc1ccc(CNC(=O)CN2C(=O)CCc3cc(S(=O)(=O)N4CCCCC4)ccc32)cc1	inactive: 3.46%	–
COc1ccc(OCc2nnc(SC(C)C(=O)Nc3ccc(N4CCOCC4)cc3)n2C)cc1 (centres undefined)	inactive: -4.01%	–
O=C(COc1ccc(F)cc1)Nc1cc(S(=O)(=O)N2CCCCC2)ccc1N1CCCCC1	inactive: -5.73%	–
CCOC(=O)C1=C(CS(=O)(=O)c2ccc(C)cc2)NC(=O)NC1c1ccc(C(C)C)cc1 (centres undefined)	inconclusive: -41.1% [cytotoxic]	–
Cc1cc(C)cc(OC(=O)CS(=O)c2ccc(C(F)(F)F)cc2[N+](=O)[O-])c1 (centres undefined)	–	inconclusive: 29.1 µM [cytotoxic, single point]
Cc1nc2c3cnn(-c4ccc(C)c(C)c4)c3ncn2n1	–	inconclusive: 0.58 µM [rising, partial curve, poor fit]
CCC(=O)N1Cc2cc(C(=O)NCCOC)nc(-c3cccc(-c4ccc(C#N)cc4)c3)c2[C@H]1CCO	–	inconclusive: 25.9 µM [rising, single point]

An excerpt taken from the entries so far, as a working copy:
Structure (SMILES)	activity change, negative = cytotoxic	Potency
O=C(COc1ccc(F)cc1)Nc1cc(S(=O)(=O)N2CCCCC2)ccc1N1CCCCC1	inactive: -5.73%	–
CCOC(=O)C1=C(CS(=O)(=O)c2ccc(C)cc2)NC(=O)NC1c1ccc(C(C)C)cc1 (centres undefined)	inconclusive: -41.1% [cytotoxic]	–
Cc1cc(C)cc(OC(=O)CS(=O)c2ccc(C(F)(F)F)cc2[N+](=O)[O-])c1 (centres undefined)	–	inconclusive: 29.1 µM [cytotoxic, single point]

Following part.

Structure (SMILES)	activity change, negative = cytotoxic	Potency
CNCc1ccccc1Sc1cccc2ccccc12	–	inconclusive: 29.1 µM [cytotoxic, single point]
COc1ccccc1NCc1cccn1-c1nnc(N2CCOCC2)s1	inactive: 2.85%	–
CCOc1ccc(C2=Nn3c(nnc3-c3ccccc3)SC2)cc1Cl	inactive: -1.35%	–
C(=N\N1CCN(C2c3ccccc3-c3ccccc32)CC1)/c1ccccn1	–	inconclusive: 20.6 µM [cytotoxic, single point]
CCc1nc2ccccc2c(C(=O)OCC(=O)Nc2cccc(S(=O)(=O)N3CCOCC3)c2)c1C	–	active: 20.6 µM
Nc1cccc2nc3ccccc3cc12	–	inconclusive: 25.9 µM [cytotoxic, single point]
CCOC(=O)c1c(NC(=O)/C=C/c2ccc3c(c2)OCO3)sc(C)c1CC	–	active: 20.6 µM
COc1ccc2c(Cl)c(C(=O)NN)sc2c1	inactive: -6.25%	–
O=C(CN1C2=NCCN2c2ccccc21)C12CC3CC(CC(C3)C1)C2	–	inconclusive: 18.4 µM [cytotoxic, single point]
CCCCC(c1nnnn1CC1CCCO1)N1CCN(c2cc(Cl)ccc2C)CC1 (centres undefined)	–	inconclusive: 29.1 µM [cytotoxic, single point]
Cn1c(SC/C=C/c2ccccc2)nnc1-c1cccs1	inactive: 7.85%	–
COc1cc(C(=O)OCC#N)ccc1OCc1c(C)noc1C	–	inconclusive: 32.6 µM [cytotoxic, partial curve, poor fit]
CCOc1ccc2nc(N3CCCC(C(=O)NCCCN4C(C)CCCC4C)C3)sc2c1 (centres undefined)	inactive: -15.7%	–
CC(=NNC(=O)c1cccc(S(=O)(=O)N2CCOCC2)c1)c1ccccc1	inactive: 1.91%	–
CC(NC(=O)Cn1ncc(Cl)c(Cl)c1=O)C12CC3CC(CC(C3)C1)C2 (centres undefined)	–	active: 6.51 µM
O=C(NCCNc1cc(Cl)ccc1[N+](=O)[O-])c1ccco1	–	inconclusive: 9.2 µM [rising, partial curve]
CC(C)Cn1cnc2c(SCc3ccccc3Cl)nc(N)nc21	–	inconclusive: 20.6 µM [cytotoxic, single point]
O=C(O)C1CCCN1c1nc(-c2ccc(Cl)c(Cl)c2)cc(C(F)(F)F)n1 (centres undefined)	–	inconclusive: 18.4 µM [cytotoxic, partial curve, poor fit]
Cc1ccc(C2CC(c3ccccc3)=NN2c2ccc(S(N)(=O)=O)cc2)cc1 (centres undefined)	–	inconclusive: 29.1 µM [cytotoxic, single point]
O=C(N/N=C/c1ccc(C(F)(F)F)cc1)c1ccc(O)cc1	inactive: -28.4%	–
COc1ccc(NC(=O)C/C(C)=N/NC(=O)c2cnccn2)c(OC)c1	–	inconclusive: 6.51 µM [rising, full curve, poor fit]
COc1ccc(C(CC(=O)O)c2ccc3c(c2)OCO3)cc1 (centres undefined)	inactive: 3.09%	–
O=C(Cn1ccc(NC(=O)OCc2ccccc2)nc1=O)NCCc1ccccn1	–	inconclusive: 14.6 µM [rising, partial curve, poor fit]
